Experiment: bitter taste suppressing effect of alkali metal chlorides on bitter drugs (finding of the inventors)
Conditions: for the named bitter drug

In the case of cefotiam hexetil hydrochloride, the “bitter taste suppressing effect of alkali metal chlorides” value is reported as “do not exhibit a bitter taste suppressing effect”.
